# From the supplement of paper PMC3334620
# Whole data set: some 33,000 sequences, median “E-score (-0.5 to 0.5)” near -0.0034, cut for the highest 2% near 0.25. The list shows a part of the results.
# Biological target: T1, Yap3 (UniProt P38749)
# T1 sequence: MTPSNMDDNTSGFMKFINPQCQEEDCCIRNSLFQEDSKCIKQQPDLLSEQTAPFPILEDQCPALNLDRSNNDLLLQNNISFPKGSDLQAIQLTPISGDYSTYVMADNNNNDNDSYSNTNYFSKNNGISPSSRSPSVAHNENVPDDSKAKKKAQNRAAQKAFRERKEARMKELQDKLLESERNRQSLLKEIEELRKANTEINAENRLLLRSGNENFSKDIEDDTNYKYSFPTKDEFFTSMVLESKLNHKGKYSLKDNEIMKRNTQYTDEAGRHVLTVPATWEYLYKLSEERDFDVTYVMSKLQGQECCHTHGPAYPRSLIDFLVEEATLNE
# Test: PBM E-score (8-mer binding enrichment) (E-score (-0.5 to 0.5)); higher = stronger / more preferred TF binding
# Conditions: protein concentration: 100 nM; construct: GST-full length
# Procedure: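 Universal 'all 10-mer' protein binding microarrays (Agilent AMADID 015681) probed with GST-tagged S. cerevisiae TFs (full-length or DBD) made by in vitro transcription/translation (PURExpress), about 100-200 nM. Bound TF was detected with fluorescent anti-GST. Each ungapped 8-mer (which stands for itself and its reverse complement) is scored by the PBM enrichment score (E-score), a modified Wilcoxon-Mann-Whitney statistic from -0.5 to +0.5, computed with the Universal PBM Analysis Suite. Scale: above 0.35 generally sequence-specific binding.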
row,Sequence,PBM E-score
1,ATCGGCTA,0.0758
2,TATAACGA,0.184
3,CCCACCTA,-0.0899
4,ACGAGTGC,-0.0843
5,ACTAAACC,-0.00203
6,CGCCACCA,-0.25
7,ATGGTTAC,0.122
8,GCGTAACC,-0.00083
9,CATATAGC,0.233
10,AGACGCGC,-0.00085
11,CCAGGCGG,-0.172
12,CGACCCGA,-0.139
13,AAGAATGT,0.0437
14,GGGTGGCA,-0.162
15,GGTCCCAC,-0.182
16,AGGTCGAA,-0.0156
17,CATACACG,0.0356
18,CTGCAGGA,0.114
19,TCCGAGAA,0.113
20,GAATGACA,0.133
21,AATAGCGT,0.195
22,AGGCGGTA,-0.234

# In a second layout: entries from further up.
row	Sequence	PBM E-score
7	ATGGTTAC	0.122
8	GCGTAACC	-0.00083
9	CATATAGC	0.233
10	AGACGCGC	-0.00085

# Reprinted at random: 2 records from the list
row,Sequence,PBM E-score
22,AGGCGGTA,-0.234
8,GCGTAACC,-0.00083

# Continuation:

row,Sequence,PBM E-score
1,CGAGCTCA,0.106
2,CAGGTAAG,0.113
3,GTAAGCGA,0.195
4,CCATAAAC,0.00629
5,CACGGGGA,-0.257
6,ATTACAAG,0.166
7,GCTAATAC,0.176
8,CTCTTCCA,-0.0498
9,ACATTATA,0.148
10,CCGTATCA,0.0654
11,TTGATAAA,0.231
12,ATAACGGG,-0.0624
13,GACAAGTC,-0.154
14,ATGAATCA,0.14
15,ATGGGGTG,-0.107
16,GGTTACGA,0.06
17,CTAATCAA,0.219
18,CGTCTAAC,-0.178
19,AGGACGCC,-0.135
20,ATTAAGGC,0.0716
21,CACTTTAC,0.141
22,CAGCGAAA,-0.0644

row,Sequence,PBM E-score
1,CCCTTTCA,-0.228
2,GTGGCCTA,-0.0783
3,CAAACCAA,0.149
4,ATATAGCA,0.16
5,GCTACACC,-0.173
6,ACACGCGG,0.0915
7,GCCTGGAA,0.0533
8,ACATGTAG,0.302
9,AGGTGGTC,-0.0882
10,ATATGCAC,0.153
11,GTTACCCA,-0.0733
12,GATCGGAC,0.0646
13,AAGATTAC,0.0324
14,GCGATAGA,0.0791
15,ACCTGAGG,-0.256
16,ATCGTTGG,0.0333
17,AAGTATCA,0.052
18,ATGATGCA,0.105
19,ATTGCATA,0.148
20,AGCTAACC,-0.181
21,ACTGATAT,-0.07
22,AAGCATGG,-0.143

row,Sequence,PBM E-score
1,ACACAAAT,0.162
2,CCGCAGAG,-0.227
3,AACACGAG,0.147
4,AAACTGCC,0.0129
5,AGTACAAA,0.0988
6,CGGCGATA,0.00508
7,CGTTCAGA,-0.11
8,CAACACTG,0.00462
9,CGCTACCC,-0.214
10,CGATAACA,0.097
11,CTTAATGA,0.14
12,CCGACTAG,-0.0945
13,AAATTTAT,0.144
14,AGCGGCAT,0.126
15,GACGATAA,0.151
16,AGTATCAC,0.0393
17,GATCTTCC,-0.134
18,AATCACGG,0.211
19,GCATTTCC,0.153
20,GTCCAGGA,-0.0965
